One substance from patent US20200255474A1 can be followed below.

By UniProt entry, the sequences of proteins in these tests, tags left out. Where a name states a change or a piece, a line headed by the entry shows the natural chain unless it says otherwise. Residues count along the entry.
UniProt P03372: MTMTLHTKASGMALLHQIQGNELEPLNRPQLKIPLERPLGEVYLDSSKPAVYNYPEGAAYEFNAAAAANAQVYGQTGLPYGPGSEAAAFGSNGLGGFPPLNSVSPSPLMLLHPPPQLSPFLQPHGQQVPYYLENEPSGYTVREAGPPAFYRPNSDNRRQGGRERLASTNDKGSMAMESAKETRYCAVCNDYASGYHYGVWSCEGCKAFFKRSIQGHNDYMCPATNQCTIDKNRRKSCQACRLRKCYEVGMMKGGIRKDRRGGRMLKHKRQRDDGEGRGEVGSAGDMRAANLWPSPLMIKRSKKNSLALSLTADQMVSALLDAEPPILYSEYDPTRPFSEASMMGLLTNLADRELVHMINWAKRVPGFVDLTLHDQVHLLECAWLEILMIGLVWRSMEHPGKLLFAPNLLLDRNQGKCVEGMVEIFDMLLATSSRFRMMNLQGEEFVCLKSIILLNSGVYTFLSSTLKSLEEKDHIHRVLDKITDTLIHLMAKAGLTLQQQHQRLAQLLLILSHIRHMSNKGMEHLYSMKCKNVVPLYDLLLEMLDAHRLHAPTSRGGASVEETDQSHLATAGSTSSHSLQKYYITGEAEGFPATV
UniProt P27986, residues 2-724: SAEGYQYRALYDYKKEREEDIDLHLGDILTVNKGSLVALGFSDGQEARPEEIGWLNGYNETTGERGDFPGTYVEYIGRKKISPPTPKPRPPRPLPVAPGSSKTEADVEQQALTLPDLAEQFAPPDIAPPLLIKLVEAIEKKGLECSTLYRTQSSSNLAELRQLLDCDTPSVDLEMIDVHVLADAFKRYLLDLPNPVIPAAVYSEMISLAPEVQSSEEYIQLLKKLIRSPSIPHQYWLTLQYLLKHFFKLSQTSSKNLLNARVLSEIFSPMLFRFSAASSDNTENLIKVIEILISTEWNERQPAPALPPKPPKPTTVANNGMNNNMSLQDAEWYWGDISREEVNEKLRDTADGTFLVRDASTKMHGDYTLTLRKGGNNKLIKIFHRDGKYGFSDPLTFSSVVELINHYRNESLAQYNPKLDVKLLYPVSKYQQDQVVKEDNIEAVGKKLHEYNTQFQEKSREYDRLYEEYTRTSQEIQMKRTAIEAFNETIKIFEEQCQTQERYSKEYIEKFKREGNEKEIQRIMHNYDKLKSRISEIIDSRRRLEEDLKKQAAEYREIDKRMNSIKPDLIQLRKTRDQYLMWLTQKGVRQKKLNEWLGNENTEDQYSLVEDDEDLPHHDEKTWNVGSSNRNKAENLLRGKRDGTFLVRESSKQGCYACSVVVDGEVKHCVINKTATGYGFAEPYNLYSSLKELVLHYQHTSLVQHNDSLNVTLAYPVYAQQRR

In assay [1] the target is FLAG-tagged ESR1 mutant (Y537S) (human) (UniProt P03372). Briefly: co-IP with anti-ERα antibody from MCF-7 cells transfected with FLAG-tagged ESR1 Y537S.
For assay [2] the target is unchanged. Nature of the assay: co-IP with anti-ERα antibody from MCF-7 cells transfected with FLAG-tagged ESR1 Y537S, no estrogen.

No constants are given. Whether binding was seen depends on the method and setting. Binding seen in cells or lysates may run through a third protein. Some results given as binding are weak or reduced against the parent protein; the word gives no strength.

Consider “PI3K (phosphatidylinositol 3-kinase) (from UniProt P27986 2-724) (enzyme)”, for which the binding result in assay [1] and in assay [2] was “binds” in each case.
